Source: article PMC11327140, “Selective inhibitor of sodium-calcium exchanger, SEA0400, affects NMDA receptor currents and abolishes their calcium-dependent block by tricyclic antidepressants” (Frontiers in Pharmacology, 2024)

Sequences of proteins named here, by UniProt entry; tags and fusion partners are left off. Residues count along the entry.
UniProt Q00959, 23-1464 limits assumed: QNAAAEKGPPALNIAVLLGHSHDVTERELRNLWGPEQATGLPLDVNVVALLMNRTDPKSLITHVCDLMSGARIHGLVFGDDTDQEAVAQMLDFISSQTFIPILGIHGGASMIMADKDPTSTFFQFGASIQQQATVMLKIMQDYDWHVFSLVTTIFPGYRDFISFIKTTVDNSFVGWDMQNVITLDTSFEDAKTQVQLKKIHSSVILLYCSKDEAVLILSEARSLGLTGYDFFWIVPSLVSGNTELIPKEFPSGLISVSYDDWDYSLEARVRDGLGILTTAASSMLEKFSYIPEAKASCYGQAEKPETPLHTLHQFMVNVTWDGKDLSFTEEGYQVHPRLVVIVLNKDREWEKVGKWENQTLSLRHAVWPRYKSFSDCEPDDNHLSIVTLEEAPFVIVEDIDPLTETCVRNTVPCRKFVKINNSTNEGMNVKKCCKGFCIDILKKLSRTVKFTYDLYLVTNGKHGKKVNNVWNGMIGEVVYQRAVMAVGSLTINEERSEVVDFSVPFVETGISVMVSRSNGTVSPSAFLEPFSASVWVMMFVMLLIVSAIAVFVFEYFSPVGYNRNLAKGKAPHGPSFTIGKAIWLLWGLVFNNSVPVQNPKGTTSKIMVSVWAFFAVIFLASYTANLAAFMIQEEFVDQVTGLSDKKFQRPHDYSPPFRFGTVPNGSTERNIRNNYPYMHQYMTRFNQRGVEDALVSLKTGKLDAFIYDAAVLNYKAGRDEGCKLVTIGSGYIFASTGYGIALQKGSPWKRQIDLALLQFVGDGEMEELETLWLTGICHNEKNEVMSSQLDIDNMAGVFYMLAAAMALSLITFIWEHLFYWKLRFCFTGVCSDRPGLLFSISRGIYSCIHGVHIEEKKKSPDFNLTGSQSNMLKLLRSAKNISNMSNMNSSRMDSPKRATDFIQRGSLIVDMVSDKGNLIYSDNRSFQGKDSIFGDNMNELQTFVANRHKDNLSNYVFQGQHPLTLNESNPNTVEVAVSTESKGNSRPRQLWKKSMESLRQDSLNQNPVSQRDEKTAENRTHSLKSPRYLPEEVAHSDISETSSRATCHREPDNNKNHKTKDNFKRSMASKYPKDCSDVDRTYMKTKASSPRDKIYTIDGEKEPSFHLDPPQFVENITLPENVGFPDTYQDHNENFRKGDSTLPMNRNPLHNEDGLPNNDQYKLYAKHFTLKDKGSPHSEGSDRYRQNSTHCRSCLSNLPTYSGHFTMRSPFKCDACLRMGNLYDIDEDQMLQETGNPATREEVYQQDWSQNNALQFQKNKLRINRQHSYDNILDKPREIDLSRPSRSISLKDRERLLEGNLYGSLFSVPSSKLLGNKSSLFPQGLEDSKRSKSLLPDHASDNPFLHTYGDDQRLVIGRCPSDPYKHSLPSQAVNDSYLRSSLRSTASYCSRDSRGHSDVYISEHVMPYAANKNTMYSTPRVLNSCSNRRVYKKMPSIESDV
UniProt Q00960, 27-1482 limits assumed: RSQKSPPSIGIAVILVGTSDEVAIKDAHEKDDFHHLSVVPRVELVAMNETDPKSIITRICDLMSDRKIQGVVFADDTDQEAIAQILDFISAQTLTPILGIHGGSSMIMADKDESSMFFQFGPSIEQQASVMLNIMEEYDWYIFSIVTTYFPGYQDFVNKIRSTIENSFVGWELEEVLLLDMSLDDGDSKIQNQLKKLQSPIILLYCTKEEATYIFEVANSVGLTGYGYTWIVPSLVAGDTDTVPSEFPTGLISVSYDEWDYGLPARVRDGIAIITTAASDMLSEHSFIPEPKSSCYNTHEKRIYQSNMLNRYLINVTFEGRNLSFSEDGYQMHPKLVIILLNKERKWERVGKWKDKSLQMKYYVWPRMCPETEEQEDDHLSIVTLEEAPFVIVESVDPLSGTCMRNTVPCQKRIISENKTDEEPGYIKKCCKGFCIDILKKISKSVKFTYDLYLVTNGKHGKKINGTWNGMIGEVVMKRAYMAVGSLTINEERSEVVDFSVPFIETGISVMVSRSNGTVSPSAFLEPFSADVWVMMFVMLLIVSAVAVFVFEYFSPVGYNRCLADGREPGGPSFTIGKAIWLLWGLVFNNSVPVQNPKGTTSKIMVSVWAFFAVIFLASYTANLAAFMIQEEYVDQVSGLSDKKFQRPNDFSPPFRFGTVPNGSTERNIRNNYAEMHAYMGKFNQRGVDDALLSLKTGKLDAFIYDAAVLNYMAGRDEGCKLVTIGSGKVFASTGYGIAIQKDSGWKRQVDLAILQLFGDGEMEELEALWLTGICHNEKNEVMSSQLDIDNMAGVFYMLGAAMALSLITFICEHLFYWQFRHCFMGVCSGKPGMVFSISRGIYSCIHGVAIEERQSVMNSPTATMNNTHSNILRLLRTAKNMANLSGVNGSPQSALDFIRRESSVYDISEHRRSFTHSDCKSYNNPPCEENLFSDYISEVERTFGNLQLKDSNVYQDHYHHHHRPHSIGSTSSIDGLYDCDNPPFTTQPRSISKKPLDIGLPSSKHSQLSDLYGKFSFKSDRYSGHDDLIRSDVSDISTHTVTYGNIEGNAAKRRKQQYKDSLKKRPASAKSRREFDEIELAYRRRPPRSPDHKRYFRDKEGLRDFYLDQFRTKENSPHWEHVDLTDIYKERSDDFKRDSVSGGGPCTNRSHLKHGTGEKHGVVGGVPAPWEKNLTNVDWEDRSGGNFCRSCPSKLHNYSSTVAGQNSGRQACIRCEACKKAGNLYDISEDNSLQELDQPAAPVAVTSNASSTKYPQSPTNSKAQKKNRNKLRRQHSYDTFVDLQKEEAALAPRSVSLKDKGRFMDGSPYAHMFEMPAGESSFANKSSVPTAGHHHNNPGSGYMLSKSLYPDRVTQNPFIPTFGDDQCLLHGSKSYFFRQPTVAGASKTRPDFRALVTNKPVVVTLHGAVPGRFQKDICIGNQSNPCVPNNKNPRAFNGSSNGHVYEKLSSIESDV

Biological target: NMDA receptor (NMDAR) currents (Rattus norvegicus, UniProt P35439+Q00959+Q00960)
Test: Whole-cell patch-clamp recording of NMDA-activated currents in cortical neurons of primary culture
Type: cell-based
Conditions: 50 nM SEA0400, 1 mM extracellular Ca2+

`CN(C)CCCN1c2ccccc2CCc2ccc(Cl)cc21` [CLO, clomipramine] was tested, and the “effect of SEA0400 on IC50 of NMDAR inhibition” value was “had no effect” and the “effect of SEA0400 on IC50 of NMDAR inhibition” value (listed as clomipramine) was “did not change”.
